# Source: patent US8222202B2 (priority 2006, dated 2012)
# Not every detail of the peptide structures is certain; ends, links or a residue may be inferred. Positions of bridges follow the written chain, without caps; N, C: chain ends. Non-standard residues stand in square brackets, D forms with d. Residues, ends and D or L forms follow the SMILES beside them. *: point of attachment. Orn = NCCC[C@H](N)C(=O)O; X5 = CC(O)CN*
# Molecular target: T1, human oxytocin (hOT) receptor (Homo sapiens, UniProt P30559)
# T1 construct: expressed in transfected cells
# T1 sequence (P30559 1-389): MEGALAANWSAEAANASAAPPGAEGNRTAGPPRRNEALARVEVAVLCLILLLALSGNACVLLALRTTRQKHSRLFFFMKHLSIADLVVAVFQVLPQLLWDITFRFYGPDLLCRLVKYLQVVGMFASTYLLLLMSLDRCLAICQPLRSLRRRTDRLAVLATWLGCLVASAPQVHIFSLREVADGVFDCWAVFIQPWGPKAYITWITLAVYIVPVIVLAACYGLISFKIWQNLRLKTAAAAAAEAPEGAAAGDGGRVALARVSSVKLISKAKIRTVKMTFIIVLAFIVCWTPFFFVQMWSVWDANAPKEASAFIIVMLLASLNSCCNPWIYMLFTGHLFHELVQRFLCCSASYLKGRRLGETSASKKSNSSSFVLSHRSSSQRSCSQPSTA
# Assay: luciferase-based transcriptional reporter assay, selectivity hOT versus hV1a
# Type: cell-based
# Details: class symbol; agonist efficacy at hOT receptor compared to AVP
# Procedure: Agonist activity of compounds on the hV1a receptor was determined in a transcriptional reporter assay by transiently transfecting a hV1a receptor expression DNA into HEK-293 cells in concert with a reporter DNA containing intracellular calcium responsive promoter elements regulating expression of firefly luciferase. See Boss, V., Talpade, D. J., Murphy, T. J. J. Biol. Chem. 1996, May 3; 271(18), 10429-10432 for further guidance on this assay. […] To determine selectivity, compounds were tested in luciferase-based transcriptional reporter assays expressing the human oxytocin (hOT) receptor. Assays for other receptors (hV2, hV1b, rat V1a and rat V2) were also conducted.
# The EC50 value given is the geometric mean expressed in nanomol/L (nM). Selectivity values are given as EC50 ratios.
compound,measurement,value
CC[C@H](C)[C@@H]1NC(=O)[C@H](Cc2ccccc2)NC(=O)[C@@H](N)CSSC[C@@H](C(=O)N2CCC[C@H]2C(=O)N[C@@H](CCCN)C(=O)NCC(N)=O)NC(=O)[C@H](CC(N)=O)NC(=O)[C@H](CC(=O)NCC(C)O)NC1=O (stereo partly shown) [Compound 28] (H-CFID(X5)NCP[Orn]G-NH2; disulfide 1-6),selectivity hOT/hV1a,+ (selective hV1a receptor agonist; EC50 hOT/hV1a ratio not determined due to very low agonist efficacy (<30% compared to AVP) at the hOT receptor)
